Here are results for six sequences from article PMC8164026.

By UniProt entry, the sequences of proteins in these tests, tags left out.
UniProt Q04207, whole entry: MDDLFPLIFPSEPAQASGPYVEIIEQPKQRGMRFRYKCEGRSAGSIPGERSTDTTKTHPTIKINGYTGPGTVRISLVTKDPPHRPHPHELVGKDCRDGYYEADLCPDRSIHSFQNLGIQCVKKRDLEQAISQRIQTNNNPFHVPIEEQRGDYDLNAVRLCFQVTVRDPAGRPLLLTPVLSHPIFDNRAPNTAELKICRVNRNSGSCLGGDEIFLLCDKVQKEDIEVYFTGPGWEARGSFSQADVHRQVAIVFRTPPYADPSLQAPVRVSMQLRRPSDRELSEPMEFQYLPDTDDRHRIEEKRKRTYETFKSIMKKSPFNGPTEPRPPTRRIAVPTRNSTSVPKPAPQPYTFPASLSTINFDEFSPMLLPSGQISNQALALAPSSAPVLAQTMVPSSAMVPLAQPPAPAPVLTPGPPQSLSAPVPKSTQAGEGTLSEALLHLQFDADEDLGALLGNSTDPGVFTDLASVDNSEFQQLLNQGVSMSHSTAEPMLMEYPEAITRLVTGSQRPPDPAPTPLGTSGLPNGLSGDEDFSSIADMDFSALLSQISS
UniProt Q04206, whole entry: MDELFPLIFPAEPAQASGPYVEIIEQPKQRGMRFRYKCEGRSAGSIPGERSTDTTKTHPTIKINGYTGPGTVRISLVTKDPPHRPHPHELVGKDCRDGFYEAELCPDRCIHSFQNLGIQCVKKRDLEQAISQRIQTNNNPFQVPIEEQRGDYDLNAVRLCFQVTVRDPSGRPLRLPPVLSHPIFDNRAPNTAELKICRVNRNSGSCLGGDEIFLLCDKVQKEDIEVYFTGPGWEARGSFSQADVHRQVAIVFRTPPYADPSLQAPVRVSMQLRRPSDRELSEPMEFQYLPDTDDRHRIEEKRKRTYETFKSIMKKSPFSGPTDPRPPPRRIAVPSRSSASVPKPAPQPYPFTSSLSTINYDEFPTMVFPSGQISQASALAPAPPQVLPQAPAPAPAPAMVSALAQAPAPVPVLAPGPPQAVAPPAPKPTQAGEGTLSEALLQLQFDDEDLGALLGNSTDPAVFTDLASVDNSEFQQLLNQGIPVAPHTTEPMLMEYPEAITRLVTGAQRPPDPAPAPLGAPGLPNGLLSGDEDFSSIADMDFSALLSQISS

Construct, isoform or probe ends are uncertain for at least one entry. For part of these data: At least one result comes from cells or an extract, where the contact may be indirect. For part of these data: A negative result means that nothing was seen under these conditions. For part of these data: The comparison behind a weaker result is the experiment's own reference, which may not be listed here. For part of these data: At least one verdict was read from the data and is not stated in words by the source.

Data set [1] addresses NF-kB/RelA in mouse lung nuclear extract (mouse (TNFα-treated lung)) (UniProt Q04207). Put plainly: competition with a labelled probe. Conditions: EMSA: 10 mM Tris-HCl pH 7.9, 50 mM NaCl, 1 mM MgCl2, 1 mM EDTA, 5 mM DTT, 5% glycerol, 0.5 µg poly dI.dC, 2-10 µg acetylated BSA, 10 min, room temperature, protein in an extract. A general note: Mobility shift assays separate free from complexed probe on a gel.

For data set [2] the target is unchanged. In words: EMSA supershift. To be noted: anti-RelA; EMSA: 10 mM Tris-HCl pH 7.9, 50 mM NaCl, 1 mM MgCl2, 1 mM EDTA, 5 mM DTT, 5% glycerol, 0.5 µg poly dI.dC, 2-10 µg acetylated BSA, 10 min, room temperature; protein in an extract; label: 32P 5' end.
The target is the same in data set [3]. In words: EMSA. Conditions: plus purified NEIL2-FLAG 5-20 nM, dose dependent inhibition; EMSA: 10 mM Tris-HCl pH 7.9, 50 mM NaCl, 1 mM MgCl2, 1 mM EDTA, 5 mM DTT, 5% glycerol, 0.5 µg poly dI.dC, 2-10 µg acetylated BSA, 10 min, room temperature; protein in an extract; label: 32P 5' end.
For a further data set, the target named is His-RelA (p65) (UniProt Q04206). Put plainly: EMSA. To be noted: EMSA: 10 mM Tris-HCl pH 7.9, 50 mM NaCl, 1 mM MgCl2, 1 mM EDTA, 5 mM DTT, 5% glycerol, 0.5 µg poly dI.dC, 2-10 µg acetylated BSA, 10 min, room temperature; recombinant protein; protein details: His; label: 32P 5' end.

Turning to “TTGCTATTAAATGTGTTCGTTTGTACAGAGTCTCAAAA (double strand) [IL6-M]”, the binding result in data set [1] (100-fold unlabeled IL6-M vs IL6-WT probe, label: 32P 5' end (probe) or unlabeled (competitor)) is reported as “no binding”.
For “GAAACACCCTGTACTCCGAAAAGGTCCCTGGCCCGGAGCTCTG / CAGAGCTCGGGGCCAGGGACCTTTTCGGAGTACAGGGTGTTTC [C1-M]”, the binding result in data set [1] (100-fold unlabeled C1-M vs C1-WT probe, label: 32P 5' end (probe) or unlabeled (competitor)) was “no binding”.
Turning to “GAAACACCCTGTACTCCGGGAATTTCCCTGGCCCGGAGCTCTG / CAGAGCTCCGGGCCAGGGAAATTCCCGGAGTACAGGGTGTTTA [C1-WT (mCxcl1-WT)]”, the binding result in data set [2] is listed as “binds”; in data set [1] (100-fold unlabeled C1-WT, label: 32P 5' end), “binds”; in data set [3], “binds more weakly”; in the data set with His-RelA (p65), “binds”.
For “GGACCCTGAGCTCAGGGAATTTCCCTGGTCCCCGGGCT (double strand) [C2-WT (mCxcl2-WT)]”, the binding result in data set [2] is “binds”; in data set [1] (100-fold unlabeled C2-WT, label: 32P 5' end), “binds”; with His-RelA (p65), “binds”.
For “TTTTTATCAAATGTGGGATTTTCCCATGAGTCTCAAAA (double strand) [IL6-WT (mIl6-WT)]”, the binding result is recorded as “binds” in data set [1] (100-fold unlabeled IL6-WT, label: 32P 5' end) and “binds” with His-RelA (p65).
For “GGACCCTGAGCTCAGAAAAGGTCCCTGGTCCACGGGCT (double strand) [C2-M]”, in data set [1] (100-fold unlabeled C2-M vs C2-WT probe, label: 32P 5' end (probe) or unlabeled (competitor)), the binding result is “no binding”.
